Measured values reported in the supplement of paper PMC4635364.
Counter-ions that a name gives are not always drawn. Some of the results follow. This data set is noisy: repeats of one test often differ as much as different tests do.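 Cells: ReNCell VM human fetal ventral-midbrain neural progenitors, differentiated mitogen-free. Blinded raters compared doublecortin-stained (early neurons) or tyrosine hydroxylase-stained (dopaminergic neurons) images with untreated wells, where 0 means no change. After repeats and both raters were averaged, compounds scoring 2 or above became hits for retesting.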

Columns and labels:
ReNCell VM [1] = assay: neuronal differentiation score (DCX+ cell fraction vs untreated, manual image score) (score (-3 to 3)); higher = more neuronal differentiation; details: 2 uM, 2 weeks
ReNCell VM [2] = assay: dopaminergic neuron differentiation score (TH+ cell fraction vs untreated, manual image score) (score (0 to 3)); higher = more TH+ dopaminergic neuron differentiation; details: 2 uM, 4 weeks, BDNF 10 ng/ml + GDNF 10 ng/ml

## CCOC(=O)c1ncc2[nH]c3cccc(OC(C)C)c3c2c1C
ReNCell VM [1]; library: Tocriscreen
  neuronal differentiation score: inactive: 0
ReNCell VM [2]; library: Tocriscreen
  dopaminergic neuron differentiation score: inactive: 0

## N[C@@H](Cc1ccc(O)c(O)c1)C(=O)O [L-3,4-Dihydroxyphenylalanine]
ReNCell VM [1]; library: LOPAC
  neuronal differentiation score: inactive: 0
ReNCell VM [2]; library: LOPAC
  dopaminergic neuron differentiation score: inactive: 0

## CC(=O)N[C@@H](CS)C(=O)O [N-Acetyl-L-Cysteine]
ReNCell VM [1]; library: LOPAC
  neuronal differentiation score: inactive: 0
ReNCell VM [2]; library: LOPAC
  dopaminergic neuron differentiation score: inactive: 0

## C=C(CC)C(=O)c1ccc(OCC(=O)O)c(Cl)c1Cl
ReNCell VM [1]; library: Spectrum
  neuronal differentiation score: inactive: 1
ReNCell VM [2]; library: Spectrum
  dopaminergic neuron differentiation score: inactive: 0

## O=C(O)Cc1ccccc1Nc1c(Cl)cccc1Cl
ReNCell VM [1]; library: Spectrum
  neuronal differentiation score: inactive: 0
ReNCell VM [2]; library: Spectrum
  dopaminergic neuron differentiation score: inactive: 0

## CC1C(=O)OC2C(O)C34C5CC(C(C)(C)C)C36C(OC(=O)C6O)OC4(C(=O)O5)C12O (stereo not given) [Ginkgolide B]
ReNCell VM [1]; library: Tocriscreen
  neuronal differentiation score: inactive: 0
ReNCell VM [2]; library: Tocriscreen
  dopaminergic neuron differentiation score: inactive: 0

## CN(C/C=C/c1ccccc1)Cc1cccc2ccccc12
ReNCell VM [1]; library: Spectrum
  neuronal differentiation score: inactive: 0
ReNCell VM [2]; library: Spectrum
  dopaminergic neuron differentiation score: inactive: 0

## O=C(O[C@H]1CN2CCC1CC2)N1CCc2ccccc2[C@@H]1c1ccccc1
ReNCell VM [1]; library: Spectrum
  neuronal differentiation score: inactive: 0
ReNCell VM [2]; library: Spectrum
  dopaminergic neuron differentiation score: inactive: 0

## CC1=NN(c2ccc([N+](=O)[O-])cc2)C(=O)C1[N+](=O)[O-] (stereo not given) [picrolonic acid]
ReNCell VM [1]; library: Natural
  neuronal differentiation score: inactive: 0
ReNCell VM [2]; library: Natural
  dopaminergic neuron differentiation score: inactive: 0

## COC(=O)CC[C@@H](C)[C@H]1CC[C@H]2[C@@H]3[C@H](O)C[C@@H]4C[C@H](O)CC[C@]4(C)[C@H]3C[C@H](O)[C@]12C
ReNCell VM [1]; library: Spectrum
  neuronal differentiation score: inactive: 0
ReNCell VM [2]; library: Spectrum
  dopaminergic neuron differentiation score: inactive: 0

## NCCS(=O)O [Hypotaurine]
ReNCell VM [1]; library: LOPAC
  neuronal differentiation score: inactive: 0
ReNCell VM [2]; library: LOPAC
  dopaminergic neuron differentiation score: inactive: 0

## CC1=CCc2c(cc3oc(C)cc(=O)c3c2O)OC1
ReNCell VM [1]; library: Spectrum
  neuronal differentiation score: inactive: 0
ReNCell VM [2]; library: Spectrum
  dopaminergic neuron differentiation score: inactive: 0

## CC1(C)S[C@@H]2[C@H](NC(=O)[C@H](N)c3ccc(O)cc3)C(=O)N2[C@H]1C(=O)O
ReNCell VM [1]; library: Spectrum
  neuronal differentiation score: inactive: 0
ReNCell VM [2]; library: Spectrum
  dopaminergic neuron differentiation score: inactive: 0

## Nc1ncnc2c1nc(Br)n2[C@@H]1O[C@@H]2COP(=O)(O)O[C@H]2[C@H]1O [8-Bromo-cAMP, sodium salt]
ReNCell VM [1]; library: Tocriscreen
  neuronal differentiation score: inactive: 0
ReNCell VM [2]; library: Tocriscreen
  dopaminergic neuron differentiation score: inactive: 0

## NC(=O)C(=O)O [Sodium Oxamate]
ReNCell VM [1]; library: LOPAC
  neuronal differentiation score: inactive: 0
ReNCell VM [2]; library: LOPAC
  dopaminergic neuron differentiation score: inactive: 0

## CCc1cn([C@H]2C[C@H](O)[C@@H](CO)O2)c(=O)[nH]c1=O
ReNCell VM [1]; library: Spectrum
  neuronal differentiation score: inactive: 0
ReNCell VM [2]; library: Spectrum
  dopaminergic neuron differentiation score: inactive: 0

## CN1C(C(=O)Nc2ccccn2)=C(O)c2ccccc2S1(=O)=O
ReNCell VM [1]; library: Spectrum
  neuronal differentiation score: inactive: 0
ReNCell VM [2]; library: Spectrum
  dopaminergic neuron differentiation score: inactive: 1

## CCCC(CCC)C(=O)O [Valproic acid sodium]
ReNCell VM [1]; library: LOPAC
  neuronal differentiation score: inactive: 0
ReNCell VM [2]; library: LOPAC
  dopaminergic neuron differentiation score: inactive: 0

## CC(=O)OCC(=O)[C@@]1(O)[C@H](C)C[C@H]2[C@@H]3CCC4=CC(=O)C=C[C@]4(C)[C@@]3(F)[C@@H](O)C[C@@]21C
ReNCell VM [1]; library: Spectrum
  neuronal differentiation score: inactive: 0
ReNCell VM [2]; library: Spectrum
  dopaminergic neuron differentiation score: inactive: 0

## CCN(CC)CCCCCCCCOC(=O)c1cc(OC)c(OC)c(OC)c1 [TMB-8 hydrochloride]
ReNCell VM [1]; library: LOPAC
  neuronal differentiation score: inactive: 1
ReNCell VM [2]; library: LOPAC
  dopaminergic neuron differentiation score: inactive: 0

## CN1CCC(=C2c3ccccc3CCc3cccnc32)CC1
ReNCell VM [1]; library: Spectrum
  neuronal differentiation score: inactive: 0
ReNCell VM [2]; library: Spectrum
  dopaminergic neuron differentiation score: inactive: 0

## C[C@@H]1CC[C@H]2C(C)(C)[C@H]3C[C@@]12CC[C@@]3(C)O
ReNCell VM [1]; library: Spectrum
  neuronal differentiation score: inactive: 0
ReNCell VM [2]; library: Spectrum
  dopaminergic neuron differentiation score: inactive: 0

## CC(C(=O)O)c1ccc2c(c1)Cc1cccnc1O2 (stereo not given) [Pranoprofen]
ReNCell VM [1]; library: Prestwick
  neuronal differentiation score: inactive: 0
ReNCell VM [2]; library: Prestwick
  dopaminergic neuron differentiation score: inactive: 1

## O=c1cc(-c2ccccc2)oc2cc(O)cc(O)c12 [Chrysin]
ReNCell VM [1]; library: Phytochemical
  neuronal differentiation score: inactive: -1
ReNCell VM [2]; library: Phytochemical
  dopaminergic neuron differentiation score: inactive: 0

## O=C(O)c1ccccc1Nc1cccc(C(F)(F)F)c1
ReNCell VM [1]; library: Spectrum
  neuronal differentiation score: inactive: 0
ReNCell VM [2]; library: Spectrum
  dopaminergic neuron differentiation score: inactive: 0

## Cc1nc(C)c(Cl)c(O)c1Cl
ReNCell VM [1]; library: Spectrum
  neuronal differentiation score: inactive: 0
ReNCell VM [2]; library: Spectrum
  dopaminergic neuron differentiation score: inactive: 0

## CCN1CCCC1CNC(=O)c1cc(S(N)(=O)=O)ccc1OC (single isomer, unassigned; (-)) [(-)-Sulpiride]
ReNCell VM [1]; library: LOPAC
  neuronal differentiation score: inactive: 0
ReNCell VM [2]; library: LOPAC
  dopaminergic neuron differentiation score: inactive: 0

## Oc1c(Cl)cc(Cl)c2cccnc12
ReNCell VM [1]; library: Spectrum
  neuronal differentiation score: inactive: 0
ReNCell VM [2]; library: Spectrum
  dopaminergic neuron differentiation score: inactive: 0

## CC1(c2ccccc2)OC(C(=O)O)=CC1=O (stereo not given) [Acifran]
ReNCell VM [1]; library: Tocriscreen
  neuronal differentiation score: inactive: 0
ReNCell VM [2]; library: Tocriscreen
  dopaminergic neuron differentiation score: inactive: 0

## N=C(N)N/N=C/c1c(Cl)cccc1Cl
ReNCell VM [1]; library: Spectrum
  neuronal differentiation score: inactive: 0
ReNCell VM [2]; library: Spectrum
  dopaminergic neuron differentiation score: inactive: 0

## C[C@H](CCC(=O)NCC(=O)O)[C@H]1CC[C@H]2[C@@H]3[C@H](O)C[C@@H]4C[C@H](O)CC[C@]4(C)[C@H]3C[C@H](O)[C@]12C [Glycocholic acid]
ReNCell VM [1]; library: Phytochemical
  neuronal differentiation score: inactive: 0
ReNCell VM [2]; library: Phytochemical
  dopaminergic neuron differentiation score: inactive: 0

## CC(=O)Oc1cccc(C)c1 [meta-CRESYL ACETATE]
ReNCell VM [1]; library: Spectrum
  neuronal differentiation score: inactive: 0
ReNCell VM [2]; library: Spectrum
  dopaminergic neuron differentiation score: inactive: 0

## Clc1ccc2nsnc2c1NC1=NCCN1 [Tizanidine hydrochloride]
ReNCell VM [1]; library: Tocriscreen
  neuronal differentiation score: inactive: 0
ReNCell VM [2]; library: Tocriscreen
  dopaminergic neuron differentiation score: inactive: 0

## C[C@@H]1C[C@H]2[C@@H]3CCC4=CC(=O)C=C[C@]4(C)[C@@]3(F)[C@@H](O)C[C@]2(C)[C@@]1(O)C(=O)CO
ReNCell VM [1]; library: Spectrum
  neuronal differentiation score: inactive: 0
ReNCell VM [2]; library: Spectrum
  dopaminergic neuron differentiation score: inactive: 0

## Oc1ccc(Cl)c2cccnc12
ReNCell VM [1]; library: Spectrum
  neuronal differentiation score: inactive: 0
ReNCell VM [2]; library: Spectrum
  dopaminergic neuron differentiation score: inactive: 0
